Consider two molecules from PMC7994674.

Chains of the proteins cited; added tags and fusions are not shown. Residues count along the entry.
UniProt P35951, residues 22-790: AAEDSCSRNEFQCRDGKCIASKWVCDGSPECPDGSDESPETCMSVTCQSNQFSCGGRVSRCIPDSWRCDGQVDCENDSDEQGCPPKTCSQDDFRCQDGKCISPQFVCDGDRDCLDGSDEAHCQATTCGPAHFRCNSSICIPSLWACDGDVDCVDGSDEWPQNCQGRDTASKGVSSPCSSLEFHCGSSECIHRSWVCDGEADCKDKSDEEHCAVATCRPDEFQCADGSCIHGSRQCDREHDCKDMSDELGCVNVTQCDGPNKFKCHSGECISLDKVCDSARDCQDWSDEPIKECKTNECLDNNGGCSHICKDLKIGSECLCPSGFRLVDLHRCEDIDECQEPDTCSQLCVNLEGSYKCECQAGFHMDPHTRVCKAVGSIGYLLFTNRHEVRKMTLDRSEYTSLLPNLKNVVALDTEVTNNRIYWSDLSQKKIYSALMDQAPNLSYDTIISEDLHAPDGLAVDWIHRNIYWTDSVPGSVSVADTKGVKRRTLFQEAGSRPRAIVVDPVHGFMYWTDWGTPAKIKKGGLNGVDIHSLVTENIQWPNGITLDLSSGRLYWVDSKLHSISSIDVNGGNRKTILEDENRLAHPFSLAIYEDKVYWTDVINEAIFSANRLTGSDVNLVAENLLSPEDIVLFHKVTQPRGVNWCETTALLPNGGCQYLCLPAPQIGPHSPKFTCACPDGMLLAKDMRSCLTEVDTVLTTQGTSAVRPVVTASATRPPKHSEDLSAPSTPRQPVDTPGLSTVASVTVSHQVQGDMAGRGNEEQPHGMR
UniProt E9Q414, residues 28-4505: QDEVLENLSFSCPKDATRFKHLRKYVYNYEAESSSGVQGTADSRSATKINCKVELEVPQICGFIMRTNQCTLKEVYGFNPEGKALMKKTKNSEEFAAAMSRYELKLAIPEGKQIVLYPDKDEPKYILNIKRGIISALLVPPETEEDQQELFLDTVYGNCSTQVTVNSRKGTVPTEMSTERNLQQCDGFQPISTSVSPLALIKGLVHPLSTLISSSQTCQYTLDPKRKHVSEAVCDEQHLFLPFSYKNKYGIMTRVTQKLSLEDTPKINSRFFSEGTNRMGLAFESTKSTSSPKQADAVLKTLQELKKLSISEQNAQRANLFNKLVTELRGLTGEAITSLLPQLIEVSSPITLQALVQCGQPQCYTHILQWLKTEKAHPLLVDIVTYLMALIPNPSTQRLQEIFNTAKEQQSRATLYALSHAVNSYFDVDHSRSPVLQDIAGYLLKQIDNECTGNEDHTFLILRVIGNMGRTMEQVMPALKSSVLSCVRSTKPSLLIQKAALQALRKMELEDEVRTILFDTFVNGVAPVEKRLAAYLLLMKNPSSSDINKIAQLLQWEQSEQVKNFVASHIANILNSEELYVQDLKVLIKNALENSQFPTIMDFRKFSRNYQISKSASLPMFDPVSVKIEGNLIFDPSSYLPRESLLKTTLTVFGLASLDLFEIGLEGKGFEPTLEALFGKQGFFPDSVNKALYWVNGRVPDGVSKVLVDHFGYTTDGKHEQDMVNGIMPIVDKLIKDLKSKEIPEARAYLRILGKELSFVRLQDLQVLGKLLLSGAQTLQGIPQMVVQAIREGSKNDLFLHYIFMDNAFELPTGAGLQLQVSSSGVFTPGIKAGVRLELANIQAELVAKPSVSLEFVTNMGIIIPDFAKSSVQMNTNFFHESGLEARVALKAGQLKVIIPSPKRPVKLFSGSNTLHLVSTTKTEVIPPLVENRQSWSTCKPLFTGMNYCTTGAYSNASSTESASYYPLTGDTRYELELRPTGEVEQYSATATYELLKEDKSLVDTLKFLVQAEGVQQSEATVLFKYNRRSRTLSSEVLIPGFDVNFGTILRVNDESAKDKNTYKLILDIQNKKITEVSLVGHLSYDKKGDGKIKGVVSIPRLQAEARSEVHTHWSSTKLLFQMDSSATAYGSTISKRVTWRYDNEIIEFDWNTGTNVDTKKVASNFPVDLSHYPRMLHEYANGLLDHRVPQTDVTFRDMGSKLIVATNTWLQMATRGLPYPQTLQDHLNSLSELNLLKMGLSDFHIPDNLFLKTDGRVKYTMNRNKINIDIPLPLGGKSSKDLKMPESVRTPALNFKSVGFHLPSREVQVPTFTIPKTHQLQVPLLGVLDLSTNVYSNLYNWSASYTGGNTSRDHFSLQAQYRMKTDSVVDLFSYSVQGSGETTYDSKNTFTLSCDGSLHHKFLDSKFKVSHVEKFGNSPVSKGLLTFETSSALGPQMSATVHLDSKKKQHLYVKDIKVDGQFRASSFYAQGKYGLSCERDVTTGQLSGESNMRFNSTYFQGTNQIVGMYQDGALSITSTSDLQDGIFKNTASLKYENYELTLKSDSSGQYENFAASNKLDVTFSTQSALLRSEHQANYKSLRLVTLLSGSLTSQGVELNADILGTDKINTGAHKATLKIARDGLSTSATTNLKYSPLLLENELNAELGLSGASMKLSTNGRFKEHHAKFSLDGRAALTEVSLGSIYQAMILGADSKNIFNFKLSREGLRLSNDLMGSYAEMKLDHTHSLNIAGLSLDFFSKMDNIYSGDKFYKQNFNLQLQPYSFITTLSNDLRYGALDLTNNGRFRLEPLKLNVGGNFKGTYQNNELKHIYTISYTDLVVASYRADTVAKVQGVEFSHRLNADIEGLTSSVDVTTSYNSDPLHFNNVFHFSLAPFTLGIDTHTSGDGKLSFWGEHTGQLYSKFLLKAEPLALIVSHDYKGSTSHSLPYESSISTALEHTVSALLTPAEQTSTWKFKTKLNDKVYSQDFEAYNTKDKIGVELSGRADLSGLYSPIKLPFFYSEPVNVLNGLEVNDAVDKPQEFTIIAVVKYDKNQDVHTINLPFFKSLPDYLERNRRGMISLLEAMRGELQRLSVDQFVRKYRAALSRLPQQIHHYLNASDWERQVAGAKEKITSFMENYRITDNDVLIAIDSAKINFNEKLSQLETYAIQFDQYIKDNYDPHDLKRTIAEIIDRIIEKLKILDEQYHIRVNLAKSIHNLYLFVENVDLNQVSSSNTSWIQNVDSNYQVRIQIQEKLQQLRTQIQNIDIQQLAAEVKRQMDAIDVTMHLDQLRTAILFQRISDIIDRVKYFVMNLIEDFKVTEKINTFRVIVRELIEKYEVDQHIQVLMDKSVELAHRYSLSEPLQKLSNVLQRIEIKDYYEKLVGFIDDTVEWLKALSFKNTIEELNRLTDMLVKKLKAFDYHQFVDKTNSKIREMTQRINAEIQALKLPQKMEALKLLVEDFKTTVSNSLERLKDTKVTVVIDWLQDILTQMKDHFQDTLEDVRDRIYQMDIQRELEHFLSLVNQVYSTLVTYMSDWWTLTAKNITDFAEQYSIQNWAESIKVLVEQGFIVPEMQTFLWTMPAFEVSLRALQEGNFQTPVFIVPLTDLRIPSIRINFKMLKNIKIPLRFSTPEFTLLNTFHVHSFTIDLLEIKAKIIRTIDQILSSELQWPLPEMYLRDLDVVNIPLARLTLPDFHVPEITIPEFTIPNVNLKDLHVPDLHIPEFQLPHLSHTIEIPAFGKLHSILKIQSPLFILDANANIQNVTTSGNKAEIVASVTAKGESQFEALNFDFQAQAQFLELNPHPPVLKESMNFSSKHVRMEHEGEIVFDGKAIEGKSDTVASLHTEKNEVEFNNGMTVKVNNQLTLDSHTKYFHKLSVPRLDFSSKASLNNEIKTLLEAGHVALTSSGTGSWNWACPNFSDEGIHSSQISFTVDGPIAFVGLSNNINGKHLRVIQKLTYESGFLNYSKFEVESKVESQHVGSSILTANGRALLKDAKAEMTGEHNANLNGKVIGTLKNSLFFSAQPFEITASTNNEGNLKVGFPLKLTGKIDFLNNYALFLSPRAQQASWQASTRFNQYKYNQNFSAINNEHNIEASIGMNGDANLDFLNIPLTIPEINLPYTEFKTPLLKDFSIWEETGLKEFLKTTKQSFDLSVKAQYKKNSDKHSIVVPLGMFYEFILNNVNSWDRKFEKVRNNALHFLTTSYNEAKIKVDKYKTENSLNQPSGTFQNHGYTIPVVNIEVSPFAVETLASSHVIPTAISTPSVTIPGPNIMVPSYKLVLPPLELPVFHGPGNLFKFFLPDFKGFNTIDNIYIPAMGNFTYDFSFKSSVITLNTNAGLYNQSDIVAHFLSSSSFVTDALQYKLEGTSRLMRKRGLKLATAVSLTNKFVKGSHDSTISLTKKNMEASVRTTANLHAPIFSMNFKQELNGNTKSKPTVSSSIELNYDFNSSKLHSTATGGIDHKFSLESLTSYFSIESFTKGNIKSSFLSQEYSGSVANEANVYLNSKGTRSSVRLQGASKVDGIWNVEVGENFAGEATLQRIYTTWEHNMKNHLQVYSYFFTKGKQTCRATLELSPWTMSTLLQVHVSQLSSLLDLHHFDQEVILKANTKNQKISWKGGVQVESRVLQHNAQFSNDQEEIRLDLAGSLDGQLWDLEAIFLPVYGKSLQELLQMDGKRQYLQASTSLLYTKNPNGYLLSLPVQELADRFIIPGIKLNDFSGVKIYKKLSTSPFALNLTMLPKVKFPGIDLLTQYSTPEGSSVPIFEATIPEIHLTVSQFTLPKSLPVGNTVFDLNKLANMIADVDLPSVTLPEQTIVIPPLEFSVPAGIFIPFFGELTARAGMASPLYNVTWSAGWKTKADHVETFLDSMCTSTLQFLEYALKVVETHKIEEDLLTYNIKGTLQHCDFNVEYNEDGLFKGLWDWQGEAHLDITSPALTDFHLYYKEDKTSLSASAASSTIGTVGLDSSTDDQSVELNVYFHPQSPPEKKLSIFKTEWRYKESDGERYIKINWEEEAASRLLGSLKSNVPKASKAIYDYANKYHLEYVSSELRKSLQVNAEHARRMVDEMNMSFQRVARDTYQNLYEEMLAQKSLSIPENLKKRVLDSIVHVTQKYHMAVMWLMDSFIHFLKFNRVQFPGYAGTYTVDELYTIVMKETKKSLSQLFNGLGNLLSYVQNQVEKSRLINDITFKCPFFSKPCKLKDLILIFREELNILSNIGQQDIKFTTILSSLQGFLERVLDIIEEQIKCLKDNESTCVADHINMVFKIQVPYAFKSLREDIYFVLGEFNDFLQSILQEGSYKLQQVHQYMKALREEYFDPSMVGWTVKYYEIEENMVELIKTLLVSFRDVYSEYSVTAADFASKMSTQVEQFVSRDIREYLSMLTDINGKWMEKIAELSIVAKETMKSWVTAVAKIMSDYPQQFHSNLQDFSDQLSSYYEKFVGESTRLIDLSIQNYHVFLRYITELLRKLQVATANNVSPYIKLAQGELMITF

In the test the target is soluble LDL receptor ectodomain (mouse plasma sLDLR) (mouse (endogenous in plasma of wild-type mice)) (UniProt P35951). Put plainly: co-IP; plasma pooled from three wild-type or Ldlr-/- mice applied to a rat anti-mouse LDLR antibody and protein-G beads; immunoblotting. Background: In western blotting, separated proteins are transferred to a membrane and probed.

No constants are given. Whether binding was seen depends on the method and setting. Binding seen in cells or lysates may run through a third protein. Some binding calls cover weakened binding; strength is not graded here.

On to “apolipoprotein B100 (from UniProt E9Q414 28-4505)”, for which the binding result is “binds”.

B1: apolipoprotein E (protein, UniProt P08226 19-311)
chain: EGEPEVTDQLEWQSNQPWEQALNRFWDYLRWVQTLSDQVQEELQSSQVTQELTALMEDTMTEVKAYKKELEEQLGPVAEETRARLGKEVQAAQARLGADMEDLRNRLGQYRNEVHTMLGQSTEEIRARLSTHLRKMRKRLMRDAEDLQKRLAVYKAGAREGAERGVSAIRERLGPLVEQGRQRTANLGAGAAQPLRDRAQAFGDRIRGRLEEVGNQARDRLEEVREHMEEVRSKMEEQTQQIRLQAEIFQARLKGWFEPIVEDMHRQWANLMEKIQASVATNPIITPVAQENQ
Take B1: the binding entry was “binds”.
